PubChem BioAssay (EPA / NIEHS)
The inconclusive results got no clear call from the source; some entries with a clear call stand among them for comparison. A potency beside an inconclusive call is a rough fit, not a confirmed value. The source made the active and inactive calls. How the source made its calls: active means hit-call score of the fitted dose curve at least 0.9, where 1 is the maximum; inconclusive means response in the unintended direction; inactive means score below 0.9.

Chains of the proteins cited; added tags and fusions are not shown. Lines headed by an entry give the natural chain unless they say otherwise; changes in a name come on top.
UniProt P10827: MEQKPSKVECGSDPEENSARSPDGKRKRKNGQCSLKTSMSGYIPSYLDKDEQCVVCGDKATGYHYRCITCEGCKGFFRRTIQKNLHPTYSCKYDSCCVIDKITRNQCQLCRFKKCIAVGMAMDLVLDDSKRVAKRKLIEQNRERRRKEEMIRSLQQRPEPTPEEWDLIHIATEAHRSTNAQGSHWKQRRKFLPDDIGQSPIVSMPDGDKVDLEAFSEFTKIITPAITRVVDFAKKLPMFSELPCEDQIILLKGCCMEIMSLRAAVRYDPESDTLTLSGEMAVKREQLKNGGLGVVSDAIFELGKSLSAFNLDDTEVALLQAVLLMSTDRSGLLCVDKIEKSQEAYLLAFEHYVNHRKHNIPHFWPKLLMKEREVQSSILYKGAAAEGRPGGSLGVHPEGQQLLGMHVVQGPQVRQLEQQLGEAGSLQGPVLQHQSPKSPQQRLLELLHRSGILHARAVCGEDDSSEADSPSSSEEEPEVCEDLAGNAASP
UniProt P10828: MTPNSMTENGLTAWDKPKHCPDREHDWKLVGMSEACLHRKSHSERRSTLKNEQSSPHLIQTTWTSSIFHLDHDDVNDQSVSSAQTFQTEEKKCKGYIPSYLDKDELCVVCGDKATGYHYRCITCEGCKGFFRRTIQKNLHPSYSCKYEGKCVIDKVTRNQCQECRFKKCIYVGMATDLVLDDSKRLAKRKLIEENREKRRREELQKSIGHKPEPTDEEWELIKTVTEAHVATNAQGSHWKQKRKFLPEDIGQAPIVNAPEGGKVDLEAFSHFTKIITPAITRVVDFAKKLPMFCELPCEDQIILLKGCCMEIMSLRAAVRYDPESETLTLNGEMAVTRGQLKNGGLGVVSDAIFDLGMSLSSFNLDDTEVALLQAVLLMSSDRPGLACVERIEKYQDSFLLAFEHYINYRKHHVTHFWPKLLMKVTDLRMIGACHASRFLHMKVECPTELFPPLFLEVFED
UniProt P19793: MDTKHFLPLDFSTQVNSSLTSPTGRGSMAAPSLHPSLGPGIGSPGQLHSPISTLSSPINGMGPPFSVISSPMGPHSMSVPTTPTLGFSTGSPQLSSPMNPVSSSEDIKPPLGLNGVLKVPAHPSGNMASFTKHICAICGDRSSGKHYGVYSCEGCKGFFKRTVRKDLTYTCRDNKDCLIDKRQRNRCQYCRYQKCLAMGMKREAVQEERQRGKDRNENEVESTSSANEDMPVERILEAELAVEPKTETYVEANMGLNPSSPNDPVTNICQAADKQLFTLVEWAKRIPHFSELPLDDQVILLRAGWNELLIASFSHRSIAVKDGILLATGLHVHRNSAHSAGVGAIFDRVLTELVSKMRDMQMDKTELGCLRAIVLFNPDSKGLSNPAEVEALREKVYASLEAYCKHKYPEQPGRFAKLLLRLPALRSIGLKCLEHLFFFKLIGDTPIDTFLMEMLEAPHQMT

Assays:
THRA (gene 7067) = THRA (gene 7067) (UniProt P10827); assay: TOX21_TRA_COA_Antagonist_Followup_ratio: Tox21 Thyroid Hormone Receptor alpha Antagonism through Coactivator Recruitment Follow-Up Assay, Ratio (AID 2283953)
Source text: TOX21_TRa_COA_Antagonist_Followup is a secondary assay for specificity for the TOX21_TR_GH3_LUC_Agonist assay. The LanthaScreen TR-FRET TR coactivator assay kits were used to determine TR activity in a cell-free functional assay. A time-resolved fluorescence resonance energy transfer (TR-FRET) signal was indicative of coactivator (SRC-2) recruitment.TOX21_TRA_COA_Antagonist_Followup_ratio is assay component calculated in the TOX21_TRA_COA_Antagonist_Followup assay. The TR-FRET ratio of acceptor emission (ch2) to donor emission (ch1) is indicative of the resonance energy transfer to the fluorescein tag on the coactivator peptide following recruitment to the receptor.Data from the assay component TOX21_TRA_COA_Antagonist_Followup_ratio was analyzed into 1 assay endpoint. This assay endpoint, TOX21_TRA_COA_Antagonist_Followup_ratio, was analyzed in the positive analysis fitting direction relative to DMSO as the negative control and baseline of activity. Using a type of inducible reporter, loss-of-signal activity can be used to understand changes in the reporter gene as they relate to the gene THRA. Furthermore, this assay endpoint can be referred to as a primary readout, because this assay has produced multiple assay endpoints and this ratio serves a reporter gene function to understand target activity. […]

THRB (gene 7068) [1] = target: THRB (gene 7068) (UniProt P10828); assay: TOX21_TRB_BLA_Antagonist_Followup_ratio: Tox21 Thyroid Hormone Receptor beta Antagonism Beta-lactamase (BLA) Follow-Up Assay, Ratio (AID 2283958)
Source text: The GeneBLAzer TRb-UAS-bla HEK293T assay kit for human TRb (ThermoFisherScientific Catalog No. K1684) was used as a secondary assay for specificity (TRb-bla).This assay contained the ligand-binding domain (LBD) of the human TRb fused to the DNA-binding domain of GAL4 stably integrated in the GeneBLAzer UAS-bla HEK293Tcell line. The reporter gene, b-lactamase, is under the transcriptional control of a UAS that binds the GAL4 DNA-binding domain. A cell viability assay was run in parallel for these cells as well using the CellTiter-Glo viability assay kit.TOX21_TRB_BLA_Antagonist_Followup_ratio is an assay readout measuring reporter gene via receptor activity and designed using inducible reporter (beta lactamase induction) detected with GAL4 b-lactamase reporter gene. The signal is derived from the ratio of cleaved (ch2) to uncleaved (ch1) reporter gene substrate used as the measure of target activity.Data from the assay component TOX21_TRB_BLA_Antagonist_Followup_ratio was analyzed into 1 assay endpoint. This assay endpoint, TOX21_TRB_BLA_Antagonist_Followup_ratio, was analyzed in the positive analysis fitting direction relative to DMSO as the negative control and baseline of activity. Using a type of inducible reporter, loss-of-signal activity can be used to understand changes in the reporter gene as they relate to the gene THRB. […]

[2] = target: Retinoic acid receptor RXR-alpha (Homo sapiens) (UniProt P19793); assay: TOX21_TR_RXR_BLA_Antagonist_Followup_ratio: Tox21 Thyroid Hormone Receptor beta Retinoid X Receptor alpha (RXRa) Antagonism Beta-lactamase (BLA) Follow-Up Assay, Ratio (AID 2283972)
Procedure, shortened: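 Antagonist mode used GAL4 UAS-driven beta-lactamase in HEK293T cells expressing RXRa, treated for 16 h with compound concentration series. Activity was taken from the blue/green (460:530 nm) ratio of cleaved to uncleaved substrate.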

[3] = TOX21_TR_RXR_BLA_Antagonist_Followup_viability: Viability Assessment in the Tox21 Thyroid Hormone Receptor beta Retinoid X Receptor alpha (RXRa) Antagonism Beta-lactamase (BLA) Follow-Up Assay (AID 2283979)
Procedure, shortened: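 RXRa-UAS-bla HEK293T cells seeded 2,500/well in phenol red-free DMEM with 2% charcoal-stripped FBS, attached 5 h, then exposed to compounds at 11 concentrations in triplicate for 16 h at 37C/5% CO2. Viability read by CellTiter-Glo ATP luminescence; bidirectional fit versus DMSO.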

[4] = TOX21_TRB_BLA_Agonist_Followup_viability: Viability Assessment in the Tox21 Thyroid Hormone Receptor beta Agonism Beta-lactamase (BLA) Follow-Up Assay (AID 2283956)
Procedure, shortened: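 TRb-bla HEK293T cells (GAL4-DBD/human TRb LBD) in 2% charcoal-stripped FBS medium were exposed 18 h at 37C to 11 concentrations in triplicate. CellTiter-Glo ATP luminescence was read after 30 min at room temperature, with bidirectional fitting against DMSO.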

THRB (gene 7068) [5] = target: THRB (gene 7068) (UniProt P10828); assay: TOX21_TRB_COA_Antagonist_Followup_ratio: Tox21 Thyroid Hormone Receptor beta Antagonism through Coactivator Recruitment Follow-Up Assay, Ratio (AID 2283967)
Procedure, shortened: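 Cell-free TR-FRET coactivator recruitment with GST-tagged TRβ LBD (5.0 nM) and fluorescein-labeled SRC-2 peptide (200 nM) detected by terbium anti-GST antibody (2 nM). The 520:495 nm emission ratio was normalized to DMSO (0%) and T3 (100%).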

[6] = TOX21_TR_RXR_BLA_Agonist_Followup_viability: Viability Assessment in the Tox21 Thyroid Hormone Receptor beta Retinoid X Receptor alpha (RXRa) Agonism Beta-lactamase (BLA) Follow-Up Assay (AID 2283970)
Procedure, shortened: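 Cells: HEK293T RXRa-UAS-bla, 2,500/well; medium phenol red-free DMEM + 2% charcoal-stripped FBS; 16h, 37C/5% CO2; qHTS concentration series. Read: CellTiter-Glo luminescence (ATP); bidirectional fit, DMSO = baseline.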

C[C@]12CC[C@@H]3c4ccc(O)cc4C[C@@H](CCCCCCCCCS(=O)CCCC(F)(F)C(F)(F)F)[C@H]3[C@@H]1CC[C@@H]2O (stereo partly specified)
AC50 (THRA (gene 7067)): inconclusive: 38.3 µM | AC50 (THRB (gene 7068) [1]): inconclusive: 38.3 µM | outcome [2]: inactive

C#C[C@]1(O)CC[C@H]2[C@@H]3CCC4=CC(=O)CC[C@@H]4[C@H]3CC[C@@]21C
outcome (THRA (gene 7067)): inactive | AC50 [3]: inconclusive: 38.3 µM

O=S(=O)(O)c1ccc2ccccc2c1
AC50 [4]: inconclusive: 0.00123 µM

CCCCCCC(C)O (stereo unspecified)
outcome [4]: inactive

Oc1ccc(Cl)cc1Cc1cc(Cl)ccc1O
AC50 (THRB (gene 7068) [5]): active: 38.3 µM

C[C@]12C[C@H](O)[C@H]3[C@@H](CCC4=CC(=O)CC[C@@]43C)[C@@H]1CC[C@@H]2C(=O)CO
AC50 (THRB (gene 7068) [5]): inconclusive: 38.3 µM | AC50 [2]: inconclusive: 30.2 µM

CC(=O)OCCC(C)CC(C)(C)C (stereo unspecified)
AC50 [6]: inconclusive: 38.3 µM
